Measurements: publication doi:10.1101/2023.07.22.550030
Results are given in words; binding and its absence hold for the method and conditions named. In cells and extracts the contact can be indirect. Binding can be weak; no strength is given.

Amino acid sequences for entries named in this document (tags omitted). A change or cut given only in a name is not applied to a line headed by its entry. Chains listed by the source or under a name are the forms on record and can include a tag or linker.
UniProt Q9BUJ2: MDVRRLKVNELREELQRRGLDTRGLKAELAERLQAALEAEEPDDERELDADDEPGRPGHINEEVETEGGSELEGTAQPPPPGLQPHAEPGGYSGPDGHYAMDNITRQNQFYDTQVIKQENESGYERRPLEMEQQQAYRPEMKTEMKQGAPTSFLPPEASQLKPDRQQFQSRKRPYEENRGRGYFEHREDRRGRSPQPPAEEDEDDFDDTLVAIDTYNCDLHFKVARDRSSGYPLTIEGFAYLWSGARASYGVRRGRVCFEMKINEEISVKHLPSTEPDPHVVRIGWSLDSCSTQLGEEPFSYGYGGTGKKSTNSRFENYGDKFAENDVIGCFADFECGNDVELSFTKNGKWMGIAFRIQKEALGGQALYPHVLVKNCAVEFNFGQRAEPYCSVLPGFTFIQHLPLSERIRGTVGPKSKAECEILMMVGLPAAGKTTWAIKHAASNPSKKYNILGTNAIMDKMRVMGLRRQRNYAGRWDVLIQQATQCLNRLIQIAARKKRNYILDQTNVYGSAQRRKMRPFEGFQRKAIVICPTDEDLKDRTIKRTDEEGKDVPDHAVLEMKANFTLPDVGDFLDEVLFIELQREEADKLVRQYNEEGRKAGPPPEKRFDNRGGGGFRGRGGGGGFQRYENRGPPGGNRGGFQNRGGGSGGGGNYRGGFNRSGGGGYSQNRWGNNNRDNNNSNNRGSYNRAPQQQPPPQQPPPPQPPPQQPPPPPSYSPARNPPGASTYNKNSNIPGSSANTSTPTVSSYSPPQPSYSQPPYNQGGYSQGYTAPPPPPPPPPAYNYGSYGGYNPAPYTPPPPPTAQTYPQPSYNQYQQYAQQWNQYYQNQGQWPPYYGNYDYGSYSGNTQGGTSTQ
FLAG-tagged hnRNPUL1 ΔWA (Walker A motif mutant) (Q9BUJ2, form named): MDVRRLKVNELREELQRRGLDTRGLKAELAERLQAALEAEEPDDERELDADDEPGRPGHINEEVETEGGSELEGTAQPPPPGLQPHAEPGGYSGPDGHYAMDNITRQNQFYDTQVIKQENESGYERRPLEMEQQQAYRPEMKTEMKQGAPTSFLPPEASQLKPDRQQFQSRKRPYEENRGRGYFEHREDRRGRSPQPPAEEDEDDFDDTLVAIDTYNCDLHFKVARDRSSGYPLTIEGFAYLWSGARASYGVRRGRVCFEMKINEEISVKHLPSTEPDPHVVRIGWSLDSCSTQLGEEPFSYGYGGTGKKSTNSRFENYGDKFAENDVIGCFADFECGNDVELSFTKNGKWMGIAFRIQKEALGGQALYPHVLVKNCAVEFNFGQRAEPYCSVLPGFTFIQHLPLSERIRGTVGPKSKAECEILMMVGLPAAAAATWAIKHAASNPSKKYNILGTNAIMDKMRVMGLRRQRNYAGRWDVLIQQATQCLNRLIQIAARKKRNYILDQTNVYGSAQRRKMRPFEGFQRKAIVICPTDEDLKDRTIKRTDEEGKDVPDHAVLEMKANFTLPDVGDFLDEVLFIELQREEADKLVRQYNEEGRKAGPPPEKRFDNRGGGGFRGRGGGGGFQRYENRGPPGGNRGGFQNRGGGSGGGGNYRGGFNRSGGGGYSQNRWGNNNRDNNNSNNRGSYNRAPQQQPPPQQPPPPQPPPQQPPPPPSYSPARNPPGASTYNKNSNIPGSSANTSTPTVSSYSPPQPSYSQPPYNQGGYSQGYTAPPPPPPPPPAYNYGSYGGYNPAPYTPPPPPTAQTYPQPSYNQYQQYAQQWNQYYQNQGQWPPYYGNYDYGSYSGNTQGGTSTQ
UniProt P67775: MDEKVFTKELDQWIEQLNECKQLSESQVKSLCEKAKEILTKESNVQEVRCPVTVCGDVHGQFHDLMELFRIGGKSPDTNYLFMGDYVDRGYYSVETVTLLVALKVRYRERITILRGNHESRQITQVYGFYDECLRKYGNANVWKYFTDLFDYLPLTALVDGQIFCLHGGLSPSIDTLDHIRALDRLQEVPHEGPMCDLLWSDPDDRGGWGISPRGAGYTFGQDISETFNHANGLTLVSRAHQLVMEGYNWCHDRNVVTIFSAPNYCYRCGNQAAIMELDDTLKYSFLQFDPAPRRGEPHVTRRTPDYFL

Legend:
[1] = molecular target: FLAG-tagged hnRNPUL1 WT (full length) (human) (UniProt Q9BUJ2); assay: co-IP
[2] = molecular target: FLAG-tagged hnRNPUL1 ΔWA (Walker A motif mutant) (human) (UniProt Q9BUJ2); assay: co-IP

binding [1]: binds | binding [2]: binds
Substance: PPP2AC (from UniProt P67775) (enzyme)
